Measurements reported in PubChem BioAssay AID743121 (NCATS, 2013)
Aim: 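Partners whose loss is lethal together with topoisomerase I blockade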 (primary screen). Cell system: MDA-MB-231 cells, a human breast cancer line. Reagent: single siRNA against human genes, 20 nM siRNA (0.8 pmol per well). Timing: 120 h (drug added 48 h after transfection, read 72 h later). Conditions: camptothecin 20 nM (about EC30) for 72 h; vehicle 0.1% DMSO in parallel plates. Measured: 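Cell viability by ATP luminescence (CellTiter-Glo) as % of non-targeting siRNA wells, and the log2 ratio of viability without drug over viability with camptothecin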. Direction: log2 vehicle/camptothecin viability: higher = stronger sensitisation to camptothecin. Hit rule: 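Each gene scored by redundant siRNA activity (RSA) over its individual siRNA ratios; a gene is called active at p < 0.001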.
In all, the deposit lists about 26,000 reagents; below is a random part of them. 167 of all reagents (0.63%) were called active. 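Calls are per gene from RSA p-values that are not deposited; an individual active-marked siRNA can sensitise only weakly.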 The numbers tell different reagents against one gene apart. Further read-outs or replicates are left out here. Reagent sequences are not shown.

With DDX1 #1, how do the results read?
log2 vehicle/camptothecin viability: -0.393; call: inactive

For DDX1 #2, what does the deposit list?
log2 vehicle/camptothecin viability: -0.263; call: inactive

With DDX1 #3, what does the deposit list?
log2 vehicle/camptothecin viability: -0.521; call: inactive

Which result is listed for DDX1 #4?
log2 vehicle/camptothecin viability: -0.0225; call: inactive

Which result is listed for MMP11 #1?
log2 vehicle/camptothecin viability: 0.0262; call: inactive

Which result is listed for MMP11 #2?
log2 vehicle/camptothecin viability: 0.0993; call: inactive

What is on record for MMP11 #3?
log2 vehicle/camptothecin viability: -0.152; call: inactive

Which result is listed for TREML1 #1?
log2 vehicle/camptothecin viability: -0.0601; call: inactive

How did the screen score TREML1 #2?
log2 vehicle/camptothecin viability: -0.00506; call: inactive

What did the screen give for TREML1 #3?
log2 vehicle/camptothecin viability: 0.0419; call: inactive

What is on record for TREML1 #4?
log2 vehicle/camptothecin viability: 0.107; call: inactive

What is on record for LPXN #1?
log2 vehicle/camptothecin viability: -0.218; call: inactive

How did the screen score LPXN #2?
log2 vehicle/camptothecin viability: 0.213; call: inactive

What did the screen give for LPXN #3?
log2 vehicle/camptothecin viability: -0.466; call: inactive

For LPXN #4, how do the results read?
log2 vehicle/camptothecin viability: -0.167; call: inactive

What did the screen give for CDK6 #1?
log2 vehicle/camptothecin viability: -0.187; call: inactive

With CDK6 #2, what does the deposit list?
log2 vehicle/camptothecin viability: -0.421; call: inactive

For CDK6 #3, what does the deposit list?
log2 vehicle/camptothecin viability: 0.0207; call: inactive

With CDK6 #4, how do the results read?
log2 vehicle/camptothecin viability: 0.0803; call: inactive

What is on record for TOP1 #1?
log2 vehicle/camptothecin viability: -0.158; call: inactive

What is on record for TOP1 #2?
log2 vehicle/camptothecin viability: -0.501; call: inactive

With TOP1 #3, what does the deposit list?
log2 vehicle/camptothecin viability: -0.284; call: inactive

With IRF1 #1, what does the deposit list?
log2 vehicle/camptothecin viability: -0.442; call: inactive

What is on record for IRF1 #2?
log2 vehicle/camptothecin viability: -0.204; call: inactive

For IRF1 #3, what does the deposit list?
log2 vehicle/camptothecin viability: -0.367; call: inactive

How did the screen score IRF1 #4?
log2 vehicle/camptothecin viability: -0.268; call: inactive

How did the screen score KHSRP #1?
log2 vehicle/camptothecin viability: -0.512; call: inactive

With KHSRP #2, how do the results read?
log2 vehicle/camptothecin viability: -0.459; call: inactive

What is on record for KHSRP #3?
log2 vehicle/camptothecin viability: -0.178; call: inactive

With KHSRP #4, what does the deposit list?
log2 vehicle/camptothecin viability: 0.0304; call: inactive

What did the screen give for CBLC #1?
log2 vehicle/camptothecin viability: 0.209; call: inactive

What did the screen give for CBLC #2?
log2 vehicle/camptothecin viability: 0.0153; call: inactive

With STK39 #1, what does the deposit list?
log2 vehicle/camptothecin viability: 0.0768; call: inactive

How did the screen score STK39 #2?
log2 vehicle/camptothecin viability: -0.451; call: inactive

With STK39 #3, what was measured?
log2 vehicle/camptothecin viability: 0.159; call: inactive

With STK39 #4, what does the deposit list?
log2 vehicle/camptothecin viability: -0.602; call: inactive

For TGS1 #1, what was measured?
log2 vehicle/camptothecin viability: -0.712; call: inactive

With TGS1 #2, how do the results read?
log2 vehicle/camptothecin viability: -0.199; call: inactive

With TGS1 #3, what does the deposit list?
log2 vehicle/camptothecin viability: -0.335; call: inactive

How did the screen score TGS1 #4?
log2 vehicle/camptothecin viability: -0.274; call: inactive

For GABRA6 #1, how do the results read?
log2 vehicle/camptothecin viability: -0.0617; call: inactive

What did the screen give for GABRA6 #2?
log2 vehicle/camptothecin viability: 0.0292; call: inactive

With GABRA6 #3, what does the deposit list?
log2 vehicle/camptothecin viability: -0.173; call: inactive

What is on record for GABRA6 #4?
log2 vehicle/camptothecin viability: -0.0176; call: inactive

For JPH3 #1, what does the deposit list?
log2 vehicle/camptothecin viability: -0.234; call: inactive

For JPH3 #2, how do the results read?
log2 vehicle/camptothecin viability: -0.496; call: inactive

Which result is listed for JPH3 #3?
log2 vehicle/camptothecin viability: -0.422; call: inactive

Laid out differently: 6 of the entries above.
{"target":"IRF1","reagent":3,"log2 vehicle/camptothecin viability":-0.367,"call":"inactive"}
{"target":"IRF1","reagent":4,"log2 vehicle/camptothecin viability":-0.268,"call":"inactive"}
{"target":"KHSRP","reagent":1,"log2 vehicle/camptothecin viability":-0.512,"call":"inactive"}
{"target":"KHSRP","reagent":2,"log2 vehicle/camptothecin viability":-0.459,"call":"inactive"}
{"target":"KHSRP","reagent":3,"log2 vehicle/camptothecin viability":-0.178,"call":"inactive"}
{"target":"KHSRP","reagent":4,"log2 vehicle/camptothecin viability":0.0304,"call":"inactive"}
